# Primary screen of a compound library

The values are deposited in ChEMBL (CHEMBL3988442, “University of Dundee, Small-Polar-MMV Screening Library” (2021)).

A: 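Whole-cell assay for inhibitors of Mycobacterium tuberculosis growth, labelled Cornell in the record; the read-out is not stated. The concentration is filed as 10 mM, unlikely as a test dose, so the dose is not known. Higher means stronger inhibition (inferred from two other growth screens of the library). Of about 53,000 compounds tested this way, about 900 (1.7%) reached 50% or more in at least one test.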
B: 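Assay on Mycobacterium tuberculosis, filed only as a heat shock assay from Cornell; the read-out is not stated. The concentration is filed as 10 mM, unlikely as a test dose, so the dose is not known. Higher reads as stronger inhibition (inferred: compounds with an IC50 in retests scored well above the rest). Size under these conditions: about 69,000 compounds, about 930 of them at 50% or above in at least one test.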

Results are given as percent effect. The record does not define 0% and 100%; most values in the screen are far below 50% and negative numbers occur (in some assays of this library far below -100). Compounds were drawn at random from those tested, without regard to their results.

compound: Cc1cnn(C2CCCN(C(=O)c3cccc4c3OCO4)C2)c1 (configuration not stated)
A: -37.8
B: -9.681

compound: COCCC1COC2(CCN(C(=O)c3ccccc3)CC2)C1 (configuration not stated)
A: 11.25
B: 0.4762

compound: O=S(=O)(NCCc1ccccc1F)N1CCOCC1
A: 14.82
B: 4.063

compound: CS(=O)(=O)NC1CC(=O)N(c2ccccc2Cl)C1 (configuration not stated)
A: 13.76
B: 13.84

compound: Cc1ccccc1C1(CNC(=O)NCCc2nnc3n2CCC3)CC1
A: 15.41
B: -15.07

compound: NC(=O)CN1CCC(Nc2ccnc3ccc(Cl)cc23)CC1
B: 21.32

compound: O=C(O)C(F)(F)F.[H][C@]12CC[C@@]3(N=C(CC)NC3=O)[C@@]1([H])CN(Cc1ccc(Cl)cc1)C2
A: 10.38
B: 4.216

compound: COc1ccc(C2CCCN2c2ccnc(C)c2Cl)c(OC)c1 (configuration not stated)
A: 36.79
B: -21.84

compound: [H][C@@]12CCCO[C@]1([H])[C@@H](N(C)Cc1cncnc1)CN2Cc1ccco1
A: 24.81
B: -1.669

compound: CCN(Cc1ccco1)C(=O)NCc1nnc2n1CCCCC2
A: -33.69
B: 5.113

compound: O=C(NCc1ccco1)N1CCCCC1c1nc(-c2ccncc2)no1 (configuration not stated)
A: 18.56
B: 0.9061

compound: Cc1nc[nH]c1CN1CCCn2nc(CN3CCC(F)(F)CC3)cc2C1
A: -13.83
B: 21.87

compound: Cc1ncncc1C(=O)N1CCCN(Cc2cnn(C(C)C)c2)CC1
A: -3.517
B: -17.99

compound: CC(C)N1CCCC1c1csc(N)n1 (configuration not stated)
A: 47.82
B: -14.14

compound: [H][C@]12CCN(Cc3cccc(C)n3)C[C@@]1([H])OCCN(c1ccc(C)nn1)C2
A: -26.14
B: -3.539

compound: CCN1CCCC1CNC(=O)CCSc1ccc2c(c1)OCCO2 (configuration not stated)
A: -18.49
B: -18.7

compound: Cc1noc(CN(C)C(=O)CCn2cnc3ccccc32)n1
A: 6.914
B: 22.02

The last 2 entries again:

CCN1CCCC1CNC(=O)CCSc1ccc2c(c1)OCCO2 (configuration not stated) gave A: -18.49%; B: -18.7%.
Cc1noc(CN(C)C(=O)CCn2cnc3ccccc32)n1 gave A: 6.914%; B: 22.02%.